# In article PMC7819943, “Rice protein-binding microarrays: a tool to detect cis-acting elements near promoter regions in rice”:
# Protein sequences, listed by entry. Tags and fused reporters are not part of them.
# UniProt Q0JBA9, entry or part of it: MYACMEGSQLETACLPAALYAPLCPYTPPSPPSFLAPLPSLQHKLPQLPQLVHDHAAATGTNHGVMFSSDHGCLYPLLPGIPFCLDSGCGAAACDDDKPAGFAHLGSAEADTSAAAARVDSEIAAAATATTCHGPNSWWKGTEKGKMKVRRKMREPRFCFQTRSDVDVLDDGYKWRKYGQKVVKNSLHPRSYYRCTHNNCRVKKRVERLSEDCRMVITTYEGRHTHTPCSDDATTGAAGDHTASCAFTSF
# The other results are listed elsewhere or left out.
# Target: OsWRKY34 (Oryza sativa, UniProt Q0JBA9 1-250)
# Assay: protein-binding microarray (RPBM); PBS, 2% BSA, 51.3 ng/ul salmon testes DNA, 50 uM zinc acetate, 200 nM TF, 25 C, 1 h; high values mean tight binding
# Details: protein: recombinant; tags: N-terminal polyhistidine and DsRed monomer fusion (pET32a); label: CyDye5-dUTP incorporated in the synthesized complementary strand; 3' TTTTT single-stranded linker to array surface; dsDNA, one strand shown
# In short: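 An Axon 4000B scanner gave the binding signal as per-feature fluorescence intensity in arbitrary units. This followed washing of a custom Agilent array that had been incubated for 1 h at 25 °C with 200 nM protein in PBS, 2% BSA, salmon testes DNA and 50 µM zinc acetate. The proteins were transcription factors fused at the N-terminus to polyhistidine and DsRed, expressed in E. coli BL21-CodonPlus and purified on Ni–NTA.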
row,Sequence,binding signal
1,GCCAGCTATAACCAATTCACCTTCGTCCCTTCTTAAATATCGGAGTCACCTAGTGCAG,8320 fluorescence intensity (a.u.)
2,AACGAGGGAGAGGGGTTGGGAAAAGGGGCATCCTAGCTGCCGGAGTCACCTAGTGCAG,11900 fluorescence intensity (a.u.)
3,GAGTGGCCGTCCGCCGCTCCGCGCCTCCGCTCTGCTACCTCGGAGTCACCTAGTGCAG,9880 fluorescence intensity (a.u.)
4,TTCGGTTGTTCTCATTCACTCTCCACCAACCTTGCCACCACGGAGTCACCTAGTGCAG,9940 fluorescence intensity (a.u.)
5,CTCGATCCGCCTTGCCCAAGCGGTCTCCGCCTTTGCCCTCCGGAGTCACCTAGTGCAG,8220 fluorescence intensity (a.u.)
6,TATGGTGCTGAGTTCACCTTCAATTACTGTGCTGTTTACTCGGAGTCACCTAGTGCAG,8660 fluorescence intensity (a.u.)
7,TGCTAGGTACAAGTGTTTTTCCACACTTCTTGTTCTTCTTCGGAGTCACCTAGTGCAG,9990 fluorescence intensity (a.u.)
8,GATCGCGCGACTCTTGAGAACCGTGACCTTTATATACTTTCGGAGTCACCTAGTGCAG,8150 fluorescence intensity (a.u.)
9,GGGCTTGCCCCTCTCCAGGGCCCTCTAGAACGTTCCACTCCGGAGTCACCTAGTGCAG,8260 fluorescence intensity (a.u.)
10,TTGCCTTGCCAGTCAGTGCTCGAGTTCGTCTCGCTCTCCGCGGAGTCACCTAGTGCAG,8730 fluorescence intensity (a.u.)
11,GAGCCCACCATACTATCCAGCCCGTCTCATCTCCGCCGCTCGGAGTCACCTAGTGCAG,11200 fluorescence intensity (a.u.)
12,AGCAGCTTGTTTCAATTGGTTTATCGTTGGTTGGATGGTTCGGAGTCACCTAGTGCAG,9220 fluorescence intensity (a.u.)
13,CACACGCCCTATCGGATCGAGGTTTCTGTATACTCCCTCTCGGAGTCACCTAGTGCAG,8780 fluorescence intensity (a.u.)
14,CTTTACTGGTTTGCTGTTTGCCGGCCGGCCTGATCATCGACGGAGTCACCTAGTGCAG,8300 fluorescence intensity (a.u.)
15,AAGTAAGATGCCACACACCATAGTCTGCTTCACTGTCAACCGGAGTCACCTAGTGCAG,9080 fluorescence intensity (a.u.)
16,GTTTCCGTCGTTGTTTGCTCCGCCACGAGGGCGCGCTACACGGAGTCACCTAGTGCAG,9290 fluorescence intensity (a.u.)
17,AAATCTAATACTTAATTAATCATACACTAATATACTGTTTCGGAGTCACCTAGTGCAG,9350 fluorescence intensity (a.u.)
18,CTCTTGCTGTTTCCTTTGCTCTGTTTCCTCTGCCTGCGCCCGGAGTCACCTAGTGCAG,8760 fluorescence intensity (a.u.)
19,CTGCGCTTCCGCCGACCACATCAGCTGCAGCACCAGCACCCGGAGTCACCTAGTGCAG,8250 fluorescence intensity (a.u.)
20,TAGCCTTTTGTAATTTTTCTTTTTTCCTATAAATATTTTTCGGAGTCACCTAGTGCAG,9670 fluorescence intensity (a.u.)
21,TACACCTGACTGTCGACCCTCACCATCTAGACACTTCCATCGGAGTCACCTAGTGCAG,8730 fluorescence intensity (a.u.)

row,Sequence,binding signal
1,AGTGTCTTGGCATATCCAGATTCTAGAGTGGTTCTCAAAACGGAGTCACCTAGTGCAG,8710 fluorescence intensity (a.u.)
2,TGTATGGTTGGTTATTGTGTGCTTCTAAGTGTGAAAATAACGGAGTCACCTAGTGCAG,8420 fluorescence intensity (a.u.)
3,CTTGCTCTAGGCCTCTTCTCCTTCGCTTGTCCGGCCAGAACGGAGTCACCTAGTGCAG,9390 fluorescence intensity (a.u.)
4,ACATAACCCCGTCATCTCGGCGACCCTCTCTCGTGGTCGCCGGAGTCACCTAGTGCAG,8540 fluorescence intensity (a.u.)
5,GAGTTCTCATCTTCTCGTATGTTCCACCCAGTCACTAAAACGGAGTCACCTAGTGCAG,8490 fluorescence intensity (a.u.)
6,GTGAATTAATTGGGCCCACACCTTTTCATGCACCCCTTGCCGGAGTCACCTAGTGCAG,8480 fluorescence intensity (a.u.)
7,CATACTCATTATTCCCGTCCACATGGTTTCATCTCGCCAGCGGAGTCACCTAGTGCAG,10300 fluorescence intensity (a.u.)
8,TTGTCATATCCCCTTCAACGGATTGCTGGCTGGAAACACACGGAGTCACCTAGTGCAG,8210 fluorescence intensity (a.u.)
9,CGCCGTGCTCCTCTTCTCTTCGCTGCCGTCGCCGTGCCTTCGGAGTCACCTAGTGCAG,8690 fluorescence intensity (a.u.)
10,CACTGCTTTGTTTGATTGTCAGTTGGTGTGCTTTCTTACCCGGAGTCACCTAGTGCAG,9420 fluorescence intensity (a.u.)
11,CTGACATGCGTCGCCATTGACTTTCGCCGCCGCCGCCGCGCGGAGTCACCTAGTGCAG,9140 fluorescence intensity (a.u.)
12,ATATATCCCTCGTACACCCTGCTCTGAATGATAGTGTTGACGGAGTCACCTAGTGCAG,10000 fluorescence intensity (a.u.)
13,TTCCCCACCCTCACGCCGCCGCCCACCACGCCGTCGTCCTCGGAGTCACCTAGTGCAG,9820 fluorescence intensity (a.u.)
14,CTCCTTCCCTATGGTCTTCTTCTTCTTCTTCTTCTTCCTCCGGAGTCACCTAGTGCAG,8450 fluorescence intensity (a.u.)
15,CAACCAACCCGATCCGATCCAGCCGCCGCCGCCGCCGCCACGGAGTCACCTAGTGCAG,8290 fluorescence intensity (a.u.)
16,CGTGTCGTGTCGTGTGTGTGCGTGCCAACCGCGCGCGCGTCGGAGTCACCTAGTGCAG,8590 fluorescence intensity (a.u.)
17,CGAATACCCACCCTGTTCCACCCTTTCCATTATGCATCCACGGAGTCACCTAGTGCAG,9490 fluorescence intensity (a.u.)
18,GCTATGCTTCTGTTTTTTTGTTTGTTTTTCAGGTGCACAACGGAGTCACCTAGTGCAG,8200 fluorescence intensity (a.u.)
19,ACTGTAATGAGCACTGCCCGTTAGCCCTTTTGCTTCATATCGGAGTCACCTAGTGCAG,10500 fluorescence intensity (a.u.)
20,GATCCTCTCGTCGGATGGGTTGGGCTATACGGTTCTAGAGCGGAGTCACCTAGTGCAG,9460 fluorescence intensity (a.u.)
21,GCAGTTATGGGTTTCTTTGTTCAACGATTGACCGTCTATCCGGAGTCACCTAGTGCAG,12600 fluorescence intensity (a.u.)

# Taken from above:
# CGAATACCCACCCTGTTCCACCCTTTCCATTATGCATCCACGGAGTCACCTAGTGCAG | binding signal: 9490 fluorescence intensity (a.u.)
# GATCCTCTCGTCGGATGGGTTGGGCTATACGGTTCTAGAGCGGAGTCACCTAGTGCAG | binding signal: 9460 fluorescence intensity (a.u.)
# TGTATGGTTGGTTATTGTGTGCTTCTAAGTGTGAAAATAACGGAGTCACCTAGTGCAG | binding signal: 8420 fluorescence intensity (a.u.)
# CAACCAACCCGATCCGATCCAGCCGCCGCCGCCGCCGCCACGGAGTCACCTAGTGCAG | binding signal: 8290 fluorescence intensity (a.u.)
# GCAGTTATGGGTTTCTTTGTTCAACGATTGACCGTCTATCCGGAGTCACCTAGTGCAG | binding signal: 12600 fluorescence intensity (a.u.)

# (next part)

row,Sequence,binding signal
1,GGGCATTTATGTCCTTTTGAAATTTCTATCTCCTCTTTTTCGGAGTCACCTAGTGCAG,8180 fluorescence intensity (a.u.)
2,ATATTCGAAGTTCATTTGGTCTGATGCATACTGTTCTTATCGGAGTCACCTAGTGCAG,10900 fluorescence intensity (a.u.)
3,TCTATCATGTTAAACACATTTACTTCTTCAGTTGTACATTCGGAGTCACCTAGTGCAG,9450 fluorescence intensity (a.u.)
4,AACTCTCCTCCGCCTCCTCTCACCGCCGCCTCACGCACTTCGGAGTCACCTAGTGCAG,8980 fluorescence intensity (a.u.)
5,TGTTCTTCTCTTTGTCTGCTTCTGCCACCTTTGAAAGGTTCGGAGTCACCTAGTGCAG,8300 fluorescence intensity (a.u.)
6,CAATTTTCTGGCGAACTGTGTTTTTTTTTGTCTACATTTACGGAGTCACCTAGTGCAG,9490 fluorescence intensity (a.u.)
7,TTTAAGTTTCGACAAGGGGTGGGTGATGCCATGGGAGGGCCGGAGTCACCTAGTGCAG,10900 fluorescence intensity (a.u.)
8,GTTTTGCCCGCCTCCGCCCACGCGTCCCTTGTTGCCACGCCGGAGTCACCTAGTGCAG,10300 fluorescence intensity (a.u.)
9,AACGGTTTATATGATGTGCTGCTGACTCACTCATTATTCTCGGAGTCACCTAGTGCAG,11600 fluorescence intensity (a.u.)
10,CTAACCACCACCATCAACTCATTCAACTGCCAAAAGCGTCCGGAGTCACCTAGTGCAG,9020 fluorescence intensity (a.u.)
11,CCTTTCTGAAACCTGCATGATCATGTACCACTTAAACTGTCGGAGTCACCTAGTGCAG,8920 fluorescence intensity (a.u.)
12,AAAAACGTTTGACCGGGTCATTGTCTTATTTTTAAATAATCGGAGTCACCTAGTGCAG,12600 fluorescence intensity (a.u.)
13,ACTTCCAGGTTTTCATGACCCTACATGTCATAGTCATTTGCGGAGTCACCTAGTGCAG,8520 fluorescence intensity (a.u.)
14,TTGTTTATTTATTCTTTATATTTACGACCATACAGGTTCACGGAGTCACCTAGTGCAG,8110 fluorescence intensity (a.u.)
15,GTCCTTTTTTCCTCTTTTTTAATACCTTATTCGTTTCAAACGGAGTCACCTAGTGCAG,11400 fluorescence intensity (a.u.)
16,CTATATATCGGTAGACCGCTGCTCTTTTATCTTATTTTTTCGGAGTCACCTAGTGCAG,15400 fluorescence intensity (a.u.)
17,CTCACTCCCTCTCACTCTCTTGTCTCCACTCTCCTCTCCTCGGAGTCACCTAGTGCAG,10800 fluorescence intensity (a.u.)
18,AGCAGCTTCATCTTTTGGCTTCATTTAAAGCTATAGCTTTCGGAGTCACCTAGTGCAG,9980 fluorescence intensity (a.u.)
19,GTCTGCAGCTCCACTTATGTATAGTGATCTTAATGTTTCACGGAGTCACCTAGTGCAG,10200 fluorescence intensity (a.u.)
20,TCTGCAGTCTGTGTCGTCTCCTCCGGTCCTTGCGCGCAAGCGGAGTCACCTAGTGCAG,13600 fluorescence intensity (a.u.)
21,GCTACTATTGCATGCATATATTCCCTCCGTCTCAAAATATCGGAGTCACCTAGTGCAG,8350 fluorescence intensity (a.u.)

# Rewritten with tabs: part of the list above
row	Sequence	binding signal
21	TACACCTGACTGTCGACCCTCACCATCTAGACACTTCCATCGGAGTCACCTAGTGCAG	8730 fluorescence intensity (a.u.)
1	AGTGTCTTGGCATATCCAGATTCTAGAGTGGTTCTCAAAACGGAGTCACCTAGTGCAG	8710 fluorescence intensity (a.u.)

# (listing goes on)

row,Sequence,binding signal
1,TATATATATATATATATATATAATTCGTTTGTGGTACATACGGAGTCACCTAGTGCAG,9710 fluorescence intensity (a.u.)
2,ACTTCACCAGTTCACCACCGTGGCACTCCCTGGGACTGAACGGAGTCACCTAGTGCAG,10800 fluorescence intensity (a.u.)
3,CTGTTCTGGTCTGCAAATATTTTTTTCTCTTTTTTTTTTTCGGAGTCACCTAGTGCAG,15700 fluorescence intensity (a.u.)
4,CATTTTGTCCCAGAAATGCCATCACCGTCACTTTTACTCTCGGAGTCACCTAGTGCAG,9160 fluorescence intensity (a.u.)
5,AGCTGTCAGACAACCATTGCTACCGAACATCCCTATAAGCCGGAGTCACCTAGTGCAG,8420 fluorescence intensity (a.u.)
6,GGGGTGGGCATGGCGGCTCGTAGGCACTGAGGCAGGGCGTCGGAGTCACCTAGTGCAG,8780 fluorescence intensity (a.u.)
7,CCTGTCAAAATCCTACGTATTTTCTATTCCTCTGTTTTTCCGGAGTCACCTAGTGCAG,12400 fluorescence intensity (a.u.)
8,ATTTAGAACAACATTTTACTGTTCGGCGCAACTTGCTTTTCGGAGTCACCTAGTGCAG,8170 fluorescence intensity (a.u.)
9,GTTTACCTCTTGCTGTAATCAACTTGCCCATGTATGTACTCGGAGTCACCTAGTGCAG,9960 fluorescence intensity (a.u.)
10,ATTCGTAGCTACATTTTTCTATTGCCGTTCCAATCTATTGCGGAGTCACCTAGTGCAG,8210 fluorescence intensity (a.u.)
11,GCCCGTTGCTCATCTCTCTCATCGTTTATCGCATTAAAATCGGAGTCACCTAGTGCAG,17900 fluorescence intensity (a.u.)
12,ACTTGACAGGTAGCTCGGCCTTCTTTTCTCTCTCTCTCTCCGGAGTCACCTAGTGCAG,8130 fluorescence intensity (a.u.)
13,TCTCTCTCTCTCGCACAATCATCGCCGCCACCACCCTCTGCGGAGTCACCTAGTGCAG,8120 fluorescence intensity (a.u.)
14,TCCATGCTATTGAGCTTTCCCAGTCAACGATTTGCCATCGCGGAGTCACCTAGTGCAG,9070 fluorescence intensity (a.u.)
15,CTAACAACCTTCTATAGTTCATTTGGTCTCTAACTTCTCACGGAGTCACCTAGTGCAG,11300 fluorescence intensity (a.u.)
16,GCCTTCTAGGGTTTTGTGGCTGGCTTACCCTTATCCCGGCCGGAGTCACCTAGTGCAG,9800 fluorescence intensity (a.u.)
17,TTTTGGTTTTTGGGTTAAGGGTGGTTGTGTCTTATATTTTCGGAGTCACCTAGTGCAG,10900 fluorescence intensity (a.u.)
18,TTAGCCTTGTGAGCCCCACATATATAAAGCTTGTTGTTTCCGGAGTCACCTAGTGCAG,8400 fluorescence intensity (a.u.)
19,CATTATGCGGGGAGTTTTGTCAGTAACTGTGATATCTGGGCGGAGTCACCTAGTGCAG,8060 fluorescence intensity (a.u.)
20,TTGCATTTCATCCGGTTCTGAGAGCGTCTCATCGACTCTCCGGAGTCACCTAGTGCAG,9700 fluorescence intensity (a.u.)
21,ACGTGATAACGACGACATGTTCTCTCTTTTTTTTTTGGGTCGGAGTCACCTAGTGCAG,8400 fluorescence intensity (a.u.)
